In patent US5807983A (The Salk Institute for Biological Studies, priority 1996, dated 1998):
Strings that start with PEPTIDE1 are HELM notation: dots part the residues, brackets hold end groups and non-standard residues.

Experiment: general procedure: Boc solid-phase peptide synthesis; MBHA resin (0.76 mM/g); DIC
Conditions: whole synthesis, capillary zone electrophoresis (CZE) and RP-HPLC, scale of the general procedure about 3 grams of MBHA resin

Row | Substance | final purity (method not given) | final HPLC purity
1 | Ac-D-2Nal-D-4Cpa-D-3Pal-D/L-(methyl,formyl)aminoGly-Aph(Ac)-D-Aph(Ac)-Leu- Lys(isopropyl)-Pro-D-Ala-NH2 | greater than 90% | 
2 | Ac-D-2Nal-D-4Cpa-D-3Pal-D/L-Agl(HO-Ac)Aph(Ac)-D-Aph(Ac)-Leu-Lys(isopropyl)-Pro-D-Ala-NH2 | greater than 90% | 
3 | Ac-D-2Nal-D-4Cpa-D-3Pal-D/L-Agl(formyl)-Aph(Ac)-D-Aph(Ac)-Leu-Lys(isopropyl)-Pro-D-Ala-NH2 | greater than 90% | 
4 | Ac-D/L-Agl(methyl,2-naphthoyl)-D-4Cpa-D-3Pal-Ser-Aph(acetyl)-D-Aph(acetyl)-Leu-Lys(isopropyl)-Pro-D-Ala-NH2 | greater than 90% | 
5 | Ac-β-D-2Nal-D-4Cpa-γ-(4-pyridyl)D/L-amidoGly-Ser-Aph(acetyl)-D- Aph(acetyl)-Leu-Lys(isopropyl)-Pro-D-Ala-NH2 | greater than 80% | 
6 | Ac-β-D-2Nal-D-Cpa-γ-(3-pyridyl)methylD/L-amidoGly-Ser-Aph(acetyl)-D-Aph(acetyl)-Leu-Lys(isopropyl)-Pro-D-Ala-NH2 | greater than 80% | 
7 | Ac-γ-(2-naphthoyl)amidoGly-4Cl-D-Phe-D-3Pal-Ser-Aph(atz)-D-Aph(atz)- Leu-Lys(isopropyl)-Pro-D-Ala-NH2 | greater than 90% | 
8 | PEPTIDE1{[ac].[D-2Nal].[D-4Cpa].[Agl(nicotinoyl)].S.[Aph(Ac)].[D-Aph(Ac)].L.[ILys].P.[dA].[am]}$$$$V2.0 |  | about 97%-98%
